Source: PubChem BioAssay AID624297 (National Center for Advancing Translational Sciences (NCATS), 2012)
Screen size: about 340,000 compounds; about 6,200 (1.8%) were called active. The shares of active, inactive and inconclusive entries below differ from those in the screen. Calls follow the shape of the dose curve; as a rule, active = well fitted activation curve with a large enough effect; inconclusive = small, poorly fitted or top-dose-only effect; inactive = no such curve, though single readings can be large or run the other way. A potency beside an inconclusive call is a rough fit, not a confirmed value.

experiment: A quantitative high throughput screen for small molecules that induce DNA re-replication in SW480 colon adenocarcinoma cells.; also: nearly all actives have a fitted effect of over 55% in size; as to re-replication activation: % of control where 0% means no effect; details: Hoechst DNA content imaging, 48 h; re-replication activation: at 46.1 µM (top of the series) unless noted
How it was run: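 DNA re-replication was detected as more nuclei of elevated Hoechst intensity after 48 hr exposure to compound (23 nL pinned per well of 250 cells).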
Potency is read from the fitted curve at half-maximal effect.

| Compound | Potency | re-replication activation |
| --- | --- | --- |
| COc1ccc(CNC(=O)CCCn2c(=S)[nH]c3cc4c(cc3c2=O)OCO4)cc1 | inconclusive: 29.1 µM [activator, single point] |  |
| O=c1ccc2cc(S(=O)(=O)Nc3ccccc3F)ccc2o1 | inconclusive: 32.6 µM [activator, single point] |  |
| COc1ccc(CN2CCN(C(=O)c3ccco3)CC2)cc1OCc1ccccc1 | inactive |  |
| CC(C)Cn1c(=O)c2c(nc3n2CC(C)CN3Cc2ccccc2)n(C)c1=O (stereo not given) | inconclusive: 8.2 µM [activator, partial curve, poor fit] |  |
| CC(C)(C)Nc1nc(Cl)nc(Nc2ccccc2)n1 | inactive |  |
| CCCC[C@@H]1CNCCN1CCc1cccc2ccccc12 | inconclusive: 20.6 µM [activator, single point] |  |
| Cc1cc(C(=O)COC(=O)Cc2n[nH]c(=O)c3ccccc23)c(C)n1-c1ccc2c(c1)OCO2 | inactive |  |
| Cc1ccc(-c2nc3cnccn3c2Nc2ccccc2)o1 | inconclusive: 29.1 µM [activator, single point] |  |
| O=C(Nc1ccccc1)Nc1cccc2cccnc12 | inconclusive: 29.1 µM [activator, partial curve, poor fit] |  |
| O=C(Nc1c(C(=O)N2CCN(c3ccccn3)CC2)oc2ccccc12)c1ccc([N+](=O)[O-])cc1 | inactive |  |
| Cc1cc(CNC(=O)C2(C(F)(F)F)CC(CCCO)CCCO2)nn1C (stereo not given) | inactive |  |
| C/C(=N\NC(=O)c1ccccc1C)c1cccc([N+](=O)[O-])c1 | inactive |  |
| COc1ccc(-c2cc(=O)c3c(O)c(OC)c(O)cc3o2)cc1 | inconclusive: 18.4 µM [activator, single point] |  |
| COc1cc2c3nnc(-c4ccc(F)cc4)c-3cn(Cc3cccc(F)c3)c2cc1OC | active: 6.51 µM |  |
| C/C(=N\NC(=O)c1n[nH]c2c1CCC2)c1ccco1 | inactive |  |
| CCN(CC(=O)Nc1ccccc1C(F)(F)F)C(=O)c1oc2c(Cl)cccc2c1C | inactive |  |
| CN(C)c1cccc(C(=O)NNC(=S)NC2CC3CCC2C3)c1 (stereo not given) | inactive |  |
| O=C(COC(=O)c1cccc2ccccc12)Nc1ncc(C(F)(F)F)cc1Cl | inactive |  |
| O=C1c2ccccc2C(=O)N1CCCCNc1ccccc1 | inactive |  |
| Oc1ccccc1/C=N/NC(=S)NCCc1ccccc1 | inconclusive: 16.4 µM [activator, single point] |  |
| COc1ccc(C2(C)NC(=O)N(CC(=O)Nc3ccc(C)cc3Br)C2=O)cc1OC (stereo not given) | inactive |  |
| O=C(CCNC(=O)c1ccc(Br)cc1)NC1CCCc2ccccc21 (stereo not given) | inconclusive: 3.66 µM [activator, full curve, poor fit] |  |
| CCc1c(C)sc(NC(=O)c2cc(C)no2)c1C#N | inconclusive: 6.51 µM [activator, single point] |  |
| COc1ccc(-c2c3c(=O)n(C)c(=O)n(C)c3cn2-c2ccccc2)cc1 | inactive |  |
| Cc1ccc(-c2nc(S(=O)(=O)c3ccccc3)c(SCC(=O)NCC3CCCO3)o2)cc1 (stereo not given) | inactive |  |

| Compound | Potency | re-replication activation |
| --- | --- | --- |
| CCN1CCc2c(sc(NC(=O)Nc3ccc(Cl)c(Cl)c3)c2C(N)=O)C1 | active: 14.6 µM |  |
| CCN(CCCNC(=O)c1cn(CC)c2ccc(S(=O)(=O)N(C)C)cc2c1=O)c1cccc(C)c1 | inactive |  |
| CCCc1cc(=S)n2c([nH]c3ccccc32)c1C#N | inconclusive: 10.3 µM [activator, partial curve, poor fit] |  |
| CCC1CCC/C1=N\NC(=O)c1cc(C)[nH]n1 (stereo not given) | active: 16.4 µM |  |
| COc1ccc(-c2csc(=Nc3ccccc3)n2CCO)cc1 | inactive |  |
| COc1ccc(C(=O)C[n+]2ccc(N(C)C)cc2)cc1 | inconclusive: 29.1 µM [activator, single point] |  |
| COC(=O)C1=C(C)N(CCc2cc(OC)c(OC)c(OC)c2)C(=O)N[C@H]1c1cccs1 | inconclusive: 14.6 µM [activator, partial curve, poor fit] |  |
| COc1cccc(C(C(=O)NC2CCCCC2)N(C(=O)c2cccs2)c2ccc3c(c2)OCO3)c1 (stereo not given) | inconclusive: 20.6 µM [activator, single point] |  |
| COc1ccccc1N1C[C@@H]2C[C@@H](c3ccco3)N3CCC[C@@]23C1=O | inactive |  |
| CN(C)Cc1c(C(=O)N/N=C/c2cccc(OCc3c(F)cccc3Cl)c2)nnn1-c1nonc1N | inconclusive: 6.51 µM [activator, partial curve, poor fit] |  |
| O=C(CNC(=O)c1cccc(Br)c1)N/N=C/c1cccs1 | inconclusive: 11.6 µM [activator, single point] |  |
| Cc1ccc(NC(=O)Cn2sc3nc(C)cc(C)c3c2=O)c(Cl)c1 | inconclusive: 4.61 µM [activator, full curve, poor fit] |  |
| O=c1oc2ccc3ccccc3c2cc1-c1nc2ccccc2o1 | active: 18.4 µM |  |
| COc1cc(-c2nnc(NC(=O)CCS(=O)(=O)c3ccccc3)o2)cc(OC)c1OC | inconclusive: 18.4 µM [activator, partial curve, poor fit] |  |
| O=C(NCC(c1ccco1)N1CCN(c2ccc(F)cc2)CC1)c1cccs1 (stereo not given) | inconclusive: 5.8 µM [activator, single point] |  |
| Cc1c(Cl)cccc1NC(=O)Cn1nc(C)n2cccc2c1=O | inactive |  |
| O=C(C[C@H]1C[C@H](C(=O)N2CCOCC2)[C@@]2(CCC3CCCC3)c3[nH]c4cc(-c5ccco5)ccc4c3CCN2C1=O)NCCc1ccccn1 | inconclusive: 18.4 µM [activator, single point] |  |
| Cc1cc2c(cc1[N+](=O)[O-])NC(CNC(C)C)CC2 (stereo not given) | inactive |  |
| CCOc1cccc(C(=O)Nc2ccc(N(CC)CC)cc2)c1 | active: 18.4 µM |  |
| Cc1cc(OCc2ccccc2)ccc1/C(O)=C1/C(=O)C(=O)N(Cc2cccnc2)C1c1ccncc1 (stereo not given) | inactive |  |
| Cc1ccc(C)n1-c1ccc(N2CCOCC2)c(Br)c1 | inconclusive: 23.1 µM [activator, single point] |  |
| Nc1nc(N)c(-c2cccc(C(F)(F)F)c2)c(Cc2cccc(C(F)(F)F)c2)n1 | inconclusive: 18.4 µM [activator, single point] |  |
| CCOCCCNC(=S)N1CCC(NC(=O)C23CC4CC(CC(C4)C2)C3)CC1 | inactive |  |
| Cc1cc2oc3ccc(NCCC4CCCN4C)cc3c(=O)c2cc1C (stereo not given) | inconclusive: 20.6 µM [activator, single point] |  |
| CC(=O)c1cccc(CN2CCC(C(=O)Nc3ccc(-c4cccc(C)c4)cc3)CC2)c1 | inconclusive: 20.6 µM [activator, single point] |  |

Random excerpt: five records from the list

| Compound | Potency | re-replication activation |
| --- | --- | --- |
| C/C(=N\NC(=O)c1n[nH]c2c1CCC2)c1ccco1 | inactive |  |
| COc1ccc(-c2cc(=O)c3c(O)c(OC)c(O)cc3o2)cc1 | inconclusive: 18.4 µM [activator, single point] |  |
| COc1ccc(-c2csc(=Nc3ccccc3)n2CCO)cc1 | inactive |  |
| Cc1cc(OCc2ccccc2)ccc1/C(O)=C1/C(=O)C(=O)N(Cc2cccnc2)C1c1ccncc1 (stereo not given) | inactive |  |
| C/C(=N\NC(=O)c1ccccc1C)c1cccc([N+](=O)[O-])c1 | inactive |  |

(more compounds)

| Compound | Potency | re-replication activation |
| --- | --- | --- |
| CCSc1nc(O)cc(=O)n1CC | inactive |  |
| NCCSc1c(-c2ccccc2)[nH]c2ccccc12 | inactive |  |
| COc1ccc(/C=C/C(=O)NC(=S)Nc2ccc(S(=O)(=O)Nc3ccc(OC)nn3)cc2)cc1 |  | inconclusive: 80% [activator] |
| O=C(Nc1ccccc1)N1C2CCC1CC(O)(c1cccnc1)C2 (stereo not given) | inconclusive: 6.51 µM [activator, single point] |  |
| Cn1cnc2c(NCc3ccco3)ncnc21 | inactive |  |
| COc1ccccc1N1CCN(C(=O)c2c(-c3c(F)cccc3Cl)noc2C)CC1 | inconclusive: 29.1 µM [activator, single point] |  |
| CC(=O)N1CCN(c2ccc(NC(=O)c3cccc(OCc4ccccc4)c3)cc2)CC1 | inconclusive: 29.1 µM [activator, partial curve, poor fit] |  |
| CCOC(=O)C(CC)Sc1nnc2n1C(C)(C)Cc1ccccc1-2 (stereo not given) | inactive |  |
| CCCC[C@@H](CNC)NC[C@H](Cc1ccc(O)cc1)NCCc1ccc(OCC)cc1 | inconclusive: 18.4 µM [activator, partial curve] |  |
| O=C(CC1Sc2ccccc2NC1=O)NNc1cc(Cl)ccc1Cl (stereo not given) | inactive |  |
| Cc1ccc(NC(=O)CSCC(=O)OC(C)C(=O)Nc2ccc(S(N)(=O)=O)cc2)c(C)c1 (stereo not given) | inactive |  |
| Cc1ccc(C)c(CSc2nnc(-c3cccs3)n2Cc2ccco2)c1 | inconclusive: 25.9 µM [activator, single point] |  |
| O=C(NCCC(=O)N1CCCC1)c1ccccc1Cl | inactive |  |
| Cc1nn(Cc2ccccc2Cl)c2sc(C(=O)NCc3ccc4c(c3)OCO4)cc12 | inactive |  |
| COc1cccc(-c2nc(CCl)cs2)c1OC |  | inconclusive: 44.4% [activator] |
| COc1ccc2c(c1)C1(Nc3ccccc3-c3nc4ccccc4n31)C(=O)N2 (stereo not given) | inactive |  |
| O=C(CSc1ccc2nnc(-c3ccccn3)n2n1)N1CCN(c2ccccc2)CC1 | inactive |  |
| N#Cc1ccccc1OCC(=O)NNC(=O)CNC(=O)c1cccc(Br)c1 | inactive |  |
| O=C(NCCN1C(=O)S/C(=C\c2ccccc2Cl)C1=O)C1=COCCO1 | inconclusive: 20.6 µM [activator, single point] |  |
| Cc1ccc(/C(O)=C2/C(=O)C(=O)N(CC(=O)O)C2c2ccc([N+](=O)[O-])cc2)cc1 (stereo not given) | inactive |  |
| Nn1c(Cc2ccccc2F)nnc1SCC(=O)Nc1cccc(S(=O)(=O)NC2=NCCCCC2)c1 | inconclusive: 1.16 µM [activator, single point] |  |
| CC(C)c1cc2c(c(O)c1O)[C@@]13CCCC(C)(C)C1CC2OC3=O (stereo not given in full) | inconclusive: 29.1 µM [activator, single point] |  |
| CCOn1c(=O)c(=O)n(O)c2ccccc21 | inconclusive: 6.51 µM [activator, single point] |  |
| O=C(NNC(=S)NCc1ccco1)c1ccc(S(=O)(=O)N2CCOCC2)cc1 | inconclusive: 16.4 µM [activator, partial curve, poor fit] |  |
| COc1ccccc1NC(=O)COC(=O)C1C2CC3OC(=O)C1C3C2 (stereo not given) | inconclusive: 7.31 µM [activator, full curve, poor fit] |  |
